Data: patent publication EP0980526B1, “INHIBITORS OF NUCLEAR PROTEIN/NUCLEAR RECEPTOR INTERACTION” (IMPERIAL CANCER RESEARCH TECHNOLOGY LIMITED, priority 1997, dated 1998)
Results are given in words; binding and its absence hold for the method and conditions named. Binding seen in cells or lysates may run through a third protein. Some entries that bind do so weakly or less than the wild type.

Chains of the proteins cited; added tags and fusions are not shown. Lines headed by an entry give the natural chain unless they say otherwise; changes in a name come on top. A line that says so, or that is headed by a name, gives the form on record, which may keep a tag or linker. Residues count along the entry.
UniProt P45481, residues 2058-2163: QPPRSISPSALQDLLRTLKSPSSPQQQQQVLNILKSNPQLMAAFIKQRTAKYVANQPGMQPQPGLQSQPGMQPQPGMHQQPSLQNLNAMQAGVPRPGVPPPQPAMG
UniProt Q15788: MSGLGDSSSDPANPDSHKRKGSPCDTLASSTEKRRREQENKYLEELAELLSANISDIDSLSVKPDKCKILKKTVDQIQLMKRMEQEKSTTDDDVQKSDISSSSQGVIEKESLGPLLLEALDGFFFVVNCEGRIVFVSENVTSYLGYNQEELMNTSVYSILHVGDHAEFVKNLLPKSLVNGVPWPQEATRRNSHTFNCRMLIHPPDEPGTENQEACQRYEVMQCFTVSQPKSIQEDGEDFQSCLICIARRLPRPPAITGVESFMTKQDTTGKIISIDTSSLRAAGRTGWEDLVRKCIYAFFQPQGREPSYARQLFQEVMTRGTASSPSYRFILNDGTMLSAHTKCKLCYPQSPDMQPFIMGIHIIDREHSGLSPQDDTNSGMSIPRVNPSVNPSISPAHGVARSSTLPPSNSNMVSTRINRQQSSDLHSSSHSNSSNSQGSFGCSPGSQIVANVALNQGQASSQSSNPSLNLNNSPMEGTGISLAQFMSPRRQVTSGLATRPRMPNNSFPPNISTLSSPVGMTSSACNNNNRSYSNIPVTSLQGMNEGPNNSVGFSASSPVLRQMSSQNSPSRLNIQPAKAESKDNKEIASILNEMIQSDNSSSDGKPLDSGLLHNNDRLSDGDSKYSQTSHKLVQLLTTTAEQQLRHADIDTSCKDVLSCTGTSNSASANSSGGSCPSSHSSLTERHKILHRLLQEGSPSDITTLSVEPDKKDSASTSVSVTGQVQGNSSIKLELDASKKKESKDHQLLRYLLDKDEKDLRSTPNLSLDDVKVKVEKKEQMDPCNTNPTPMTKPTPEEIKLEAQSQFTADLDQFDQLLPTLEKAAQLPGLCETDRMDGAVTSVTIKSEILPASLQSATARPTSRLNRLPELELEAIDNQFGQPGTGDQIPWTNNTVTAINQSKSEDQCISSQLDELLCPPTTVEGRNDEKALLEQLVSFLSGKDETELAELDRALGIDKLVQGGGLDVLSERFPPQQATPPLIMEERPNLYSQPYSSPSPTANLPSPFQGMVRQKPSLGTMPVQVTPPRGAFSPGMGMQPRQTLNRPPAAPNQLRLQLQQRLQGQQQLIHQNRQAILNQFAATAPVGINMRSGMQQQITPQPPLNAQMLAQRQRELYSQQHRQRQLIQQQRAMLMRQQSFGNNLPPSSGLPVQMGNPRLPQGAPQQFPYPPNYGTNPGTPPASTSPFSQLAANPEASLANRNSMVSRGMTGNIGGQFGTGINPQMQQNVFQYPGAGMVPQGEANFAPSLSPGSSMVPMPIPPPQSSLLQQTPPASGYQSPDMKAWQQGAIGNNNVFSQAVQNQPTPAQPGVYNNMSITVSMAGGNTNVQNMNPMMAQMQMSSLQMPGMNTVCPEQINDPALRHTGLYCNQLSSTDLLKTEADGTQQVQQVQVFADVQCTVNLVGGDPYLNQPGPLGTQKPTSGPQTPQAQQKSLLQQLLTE
SRC1a-M1234 (Q15788, form named): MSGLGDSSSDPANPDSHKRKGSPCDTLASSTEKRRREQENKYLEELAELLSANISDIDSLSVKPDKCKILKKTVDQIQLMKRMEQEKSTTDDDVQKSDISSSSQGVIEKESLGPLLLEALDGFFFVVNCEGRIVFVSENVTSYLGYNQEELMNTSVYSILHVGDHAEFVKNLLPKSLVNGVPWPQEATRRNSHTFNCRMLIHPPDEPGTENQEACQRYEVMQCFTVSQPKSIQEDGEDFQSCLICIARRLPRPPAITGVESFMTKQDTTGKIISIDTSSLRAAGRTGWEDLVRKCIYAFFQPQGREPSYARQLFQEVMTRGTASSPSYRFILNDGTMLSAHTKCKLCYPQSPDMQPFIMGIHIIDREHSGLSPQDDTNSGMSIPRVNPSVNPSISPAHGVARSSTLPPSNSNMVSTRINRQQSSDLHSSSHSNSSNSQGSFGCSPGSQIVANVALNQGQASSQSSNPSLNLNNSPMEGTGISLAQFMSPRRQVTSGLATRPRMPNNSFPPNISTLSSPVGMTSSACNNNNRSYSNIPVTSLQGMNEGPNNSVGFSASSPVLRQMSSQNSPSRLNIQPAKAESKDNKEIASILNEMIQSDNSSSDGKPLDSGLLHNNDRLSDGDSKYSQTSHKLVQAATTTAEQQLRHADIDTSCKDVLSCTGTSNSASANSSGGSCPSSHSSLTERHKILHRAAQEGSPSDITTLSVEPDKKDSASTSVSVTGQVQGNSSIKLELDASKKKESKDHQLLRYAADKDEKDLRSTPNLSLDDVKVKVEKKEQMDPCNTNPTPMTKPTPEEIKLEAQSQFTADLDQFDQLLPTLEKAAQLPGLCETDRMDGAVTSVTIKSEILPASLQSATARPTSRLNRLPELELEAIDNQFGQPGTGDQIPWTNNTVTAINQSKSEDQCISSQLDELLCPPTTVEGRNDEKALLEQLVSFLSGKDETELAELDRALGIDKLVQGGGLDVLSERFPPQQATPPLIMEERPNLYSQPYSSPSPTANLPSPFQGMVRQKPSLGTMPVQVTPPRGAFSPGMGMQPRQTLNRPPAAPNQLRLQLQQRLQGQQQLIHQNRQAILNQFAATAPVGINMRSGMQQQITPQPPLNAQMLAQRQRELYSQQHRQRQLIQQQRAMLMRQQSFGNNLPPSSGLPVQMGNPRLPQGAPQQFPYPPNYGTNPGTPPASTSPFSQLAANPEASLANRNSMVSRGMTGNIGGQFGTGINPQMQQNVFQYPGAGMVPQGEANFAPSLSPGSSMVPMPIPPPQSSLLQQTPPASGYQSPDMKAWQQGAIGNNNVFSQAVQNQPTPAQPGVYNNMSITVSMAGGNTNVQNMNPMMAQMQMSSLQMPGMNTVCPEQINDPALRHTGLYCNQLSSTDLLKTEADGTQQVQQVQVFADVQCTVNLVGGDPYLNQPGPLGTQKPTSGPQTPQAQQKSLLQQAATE

Biological target: GST-CBP (GST fused to the SRC1-binding domain of CBP) (mouse) (UniProt P45481)
Assay: GST pulldown of [35S]-labelled in vitro translated protein

Row | Substance | binding
1 | SRC1a-M1234 (from UniProt Q15788 1-1441) | binds
2 | wild type SRC1a (human, in vitro translated) (from UniProt Q15788 1-1441) | binds
